Among the data in PMC5494471 are binding values, retold here.

Results are given in words; binding and its absence hold for the method and conditions named. In cells and extracts the contact can be indirect. For some assays here: Binding calls can cover weak binding; strength is not graded here.

The target of experiment [1] is GFP-PumA (Pseudomonas aeruginosa PA7). Nature of the experiment: co-IP.
Experiment [2] concerns the target His-PumA (Pseudomonas aeruginosa PA7). Nature of the experiment: pull-down; […]; 20 mM Tris-HCl pH 7.5, 250 mM NaCl, […]; only the target purified.
The target of experiment [3] is His-PumA_(1-136) (Pseudomonas aeruginosa PA7). The description is as above.
Experiment [4] has as its target HA-PumA_(137-303) (Pseudomonas aeruginosa PA7). As to the kind of experiment: co-IP.
The target of experiment [5] is HA-PumA (Pseudomonas aeruginosa PA7). As to the kind of experiment: co-IP.

B1: Strep-UBAP1 (protein, UniProt Q9NZ09 1-502)
chain: MASKKLGADFHGTFSYLDDVPFKTGDKFKTPAKVGLPIGFSLPDCLQVVREVQYDFSLEKKTIEWAEEIKKIEEAEREAECKIAEAEAKVNSKSGPEGDSKMSFSKTHSTATMPPPINPILASLQHNSILTPTRVSSSATKQKVLSPPHIKADFNLADFECEEDPFDNLELKTIDEKEELRNILVGTTGPIMAQLLDNNLPRGGSGSVLQDEEVLASLERATLDFKPLHKPNGFITLPQLGNCEKMSLSSKVSLPPIPAVSNIKSLSFPKLDSDDSNQKTAKLASTFHSTSCLRNGTFQNSLKPSTQSSASELNGHHTLGLSALNLDSGTEMPALTSSQMPSLSVLSVCTEESSPPNTGPTVTPPNFSVSQVPNMPSCPQAYSELQMLSPSERQCVETVVNMGYSYECVLRAMKKKGENIEQILDYLFAHGQLCEKGFDPLLVEEALEMHQCSEEKMMEFLQLMSKFKEMGFELKDIKEVLLLHNNDQDNALEDLMARAGAS
With B1, the binding entry in experiment [1], in experiment [2] and in experiment [3] was “binds” in each case.

B2: endogenous UBAP1 (protein, UniProt Q9NZ09 1-502)
chain: MASKKLGADFHGTFSYLDDVPFKTGDKFKTPAKVGLPIGFSLPDCLQVVREVQYDFSLEKKTIEWAEEIKKIEEAEREAECKIAEAEAKVNSKSGPEGDSKMSFSKTHSTATMPPPINPILASLQHNSILTPTRVSSSATKQKVLSPPHIKADFNLADFECEEDPFDNLELKTIDEKEELRNILVGTTGPIMAQLLDNNLPRGGSGSVLQDEEVLASLERATLDFKPLHKPNGFITLPQLGNCEKMSLSSKVSLPPIPAVSNIKSLSFPKLDSDDSNQKTAKLASTFHSTSCLRNGTFQNSLKPSTQSSASELNGHHTLGLSALNLDSGTEMPALTSSQMPSLSVLSVCTEESSPPNTGPTVTPPNFSVSQVPNMPSCPQAYSELQMLSPSERQCVETVVNMGYSYECVLRAMKKKGENIEQILDYLFAHGQLCEKGFDPLLVEEALEMHQCSEEKMMEFLQLMSKFKEMGFELKDIKEVLLLHNNDQDNALEDLMARAGAS
For the molecule B2, the binding result in experiment [4] is recorded as “no binding”; in experiment [5] it was “binds”.
